What follows are molecules tested on CT DNA (calf thymus DNA) (assay: Absorption spectral titration with CT-DNA (Wolfe-Shimmer equation)). Details: π→π* band at ca. 270 nm on addition of CT DNA.
Type: binding

Row | SMILES | Blue shift (nm) | Hyperchromism (%)
1 | CN(C)C(=S)[S][Au-][P+](C)(C)C [Complex 1, (Me)3PAu(S2CN{Me}2)] | 2 | 22
2 | CC[P+](CC)(CC)[Au-][S]C(=S)N(C)C [Complex 2, (Et)3PAu(S2CN{Me}2)] | 3 | 31
3 | CCN(CC)C(=S)[S][Au-][P+](C)(C)C [Complex 3, (Me)3PAu(S2CN{Et}2)] | 3 | 37
4 | CCN(CC)C(=S)[S][Au-][P+](CC)(CC)CC [Complex 4, (Et)3PAu(S2CN{Et}2)] | 5 | 43
5 | CC(C)[P+]([Au-][S]C(=S)N(C)C)(C(C)C)C(C)C [Complex 5, (i-Pr)3PAu(S2CN{Me}2)] | 0 | 20

Source: US10273257B2, “Cancer cell-containing composition” (KING FAHD UNIVERSITY OF PETROLEUM AND MINERALS, priority 2016, dated 2019)
